This passage reports step yield results from patent publication US20210221848A1 (priority 2014, published 2021).

The nature of this series: general procedure: solution-phase peptide synthesis; HATU/DIPEA. Particulars: late stage modification step.

In the case of Tri-(BOC)-Polymyxin E Heptapeptide, the step yield is reported as 56%.

Regarding “(S)-4-(Boc)amino-2-hydroxybutanoyl Thr(O-^tBu) Tetra-(N-Boc) polymyxin B nonapeptide [Thr-10(O-triethylsilyl)]”, the step yield stood at 71%.
